Laboratory results as given in USRE49022E1, “Insecticidal compounds” (SYNGENTA PARTICIPATIONS AG, priority 2013, dated 2022).
Some entries share one result that the patent states for a list of compounds.

Legend:
Type in all cases: in vivo
[1] = system: Frankliniella occidentalis (Western Flower Thrips); assay: Frankliniella occidentalis, sunflower leaf disc spray test; details: 200 ppm, sprayed sunflower leaf discs, population of mixed ages, mortality after 7 DAT
[2] = system: Bemisia tabaci (Cotton White Fly); assay: Bemisia tabaci, cotton leaf disc spray test; details: 200 ppm, sprayed cotton leaf discs, adult white flies, mortality after 6 DAI
[3] = system: Myzus persicae (Green Peach Aphid); assay: Myzus persicae, pea seedling roots in test solution; details: 24 ppm, roots of infested pea seedlings in test solution, mortality 6 days after introduction
[4] = system: Heliothis virescens (Tobacco Budworm); assay: Heliothis virescens, eggs on artificial diet test; details: 200 ppm (concentration in well 18 ppm), larval mortality after 4 days

| SMILES | control of Frankliniella occidentalis [1] | control of Bemisia tabaci [2] | control of Myzus persicae [3] | control of Heliothis virescens [4] |
| --- | --- | --- | --- | --- |
| O=C(Nc1cccc(C(=O)Nc2c(Br)cc(C(F)(C(F)(F)F)C(F)(F)Br)cc2OC(F)F)c1F)c1cc[n+]([O-])cc1 (stereo not drawn) [Compound 6] | at least 80% | at least 80% | – | – |
| CCN(C(=O)c1cc[n+]([O-])cc1)c1cccc(C(=O)Nc2c(Br)cc(C(F)(C(F)(F)F)C(F)(F)Cl)cc2OC(F)F)c1OC (stereo not drawn) [Compound 44, N-[3-[[2-bromo-4-[1-[chloro(difluoro)methyl]-1,2,2,2-tetrafluoro-ethyl]-6-(difluoromethoxy)phenyl]carbamoyl]-2-methoxy-phenyl]-N-ethyl-1-oxido-pyridin-1-ium-4-carboxamide] | – | – | at least 80% | – |
| CCN(C(=O)c1ccc(C#N)cc1)c1cccc(C(=O)Nc2c(Cl)cc(C(F)(C(F)(F)F)C(F)(F)Br)cc2Br)c1OC (stereo not drawn) [Compound 1, N-[2-bromo-4-[1-[bromo(difluoro)methyl]-1,2,2,2-tetrafluoro-ethyl]-6-chloro-phenyl]-3-[(4-cyanobenzoyl)-ethyl-amino]-2-methoxy-benzamide] | – | – | – | at least 80% |
| CCN(C(=O)c1cc[n+]([O-])cc1)c1cccc(C(=O)Nc2c(Br)cc(C(F)(C(F)(F)F)C(F)(F)Cl)cc2OC(F)F)c1F (stereo not drawn) [Compound 43] | – | – | at least 80% | – |
| O=C(Nc1cccc(C(=O)Nc2c(Br)cc(C(F)(C(F)(F)F)C(F)(F)Br)cc2OC(F)F)c1F)c1ccncc1 (stereo not drawn) [Compound 4] | at least 80% | at least 80% | – | at least 80% |
| CCc1cc(C(F)(C(F)(F)F)C(F)(F)Cl)cc(Br)c1NC(=O)c1cccc(N(CC)C(=O)c2cc[n+]([O-])cc2)c1F (stereo not drawn) [Compound 45] | – | – | at least 80% | – |
| COc1c(NC(=O)c2ccncc2)cccc1C(=O)Nc1c(Br)cc(C(F)(C(F)(F)F)C(F)(F)Cl)cc1OC(F)F (stereo not drawn) [Compound 14] | – | – | at least 80% | – |
| N#Cc1ccc(C(=O)Nc2cccc(C(=O)Nc3c(Br)cc(C(F)(C(F)(F)F)C(F)(F)Br)cc3OC(F)F)c2F)cc1 (stereo not drawn) [Compound 5] | at least 80% | at least 80% | – | – |
| CCc1cc(C(F)(C(F)(F)F)C(F)(F)Cl)cc(Br)c1NC(=O)c1cccc(N(CC)C(=O)c2cc[n+]([O-])cc2)c1OC (stereo not drawn) [Compound 46] | – | – | at least 80% | – |
| CCN(C(=O)c1ccncc1)c1cccc(C(=O)Nc2c(Br)cc(C(F)(C(F)(F)F)C(F)(F)Br)cc2OC(F)F)c1F (stereo not drawn) [Compound 7] | at least 80% | at least 80% | – | – |
| CCN(C(=O)c1ccncc1)c1cccc(C(=O)Nc2c(Cl)cc(C(F)(C(F)(F)F)C(F)(F)Br)cc2Br)c1OC (stereo not drawn) [Compound 2, N-[3-[[2-bromo-4-[1-[bromo(difluoro)methyl]-1,2,2,2-tetrafluoro-ethyl]-6-chloro-phenyl]carbamoyl]-2-methoxy-phenyl]-N-ethyl-pyridine-4-carboxamide] | at least 80% | at least 80% | – | at least 80% |
| COc1c(NC(=O)c2ccncc2)cccc1C(=O)Nc1c(Cl)cc(C(F)(C(F)(F)F)C(F)(F)Br)cc1Br (stereo not drawn) [Compound 3, N-[3-[[2-bromo-4-[1-[bromo(difluoro)methyl]-1,2,2,2-tetrafluoro-ethyl]-6-chloro-phenyl]carbamoyl]-2-methoxy-phenyl]pyridine-4-carboxamide] | at least 80% | at least 80% | – | at least 80% |
